Test results taken from paper PMC12526889.
No constants are given. Whether binding was seen depends on the method and setting. For part of these data: A result given as binding can be weak or reduced; the word gives no strength. For part of these data: Sequences can lack the tags named with a protein. For part of these data: Binding seen in cells or lysates may run through a third protein. Each block holds one molecule with its values, some of them ahead of it.

By UniProt entry, the sequences of proteins in these tests, tags left out. Where a name states a change or a piece, a line headed by the entry shows the natural chain unless it says otherwise.
UniProt F4JHD1: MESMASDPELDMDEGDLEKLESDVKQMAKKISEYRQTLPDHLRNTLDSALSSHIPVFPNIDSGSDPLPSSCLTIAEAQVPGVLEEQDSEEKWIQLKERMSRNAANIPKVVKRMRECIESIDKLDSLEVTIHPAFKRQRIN
UniProt F4IVI0: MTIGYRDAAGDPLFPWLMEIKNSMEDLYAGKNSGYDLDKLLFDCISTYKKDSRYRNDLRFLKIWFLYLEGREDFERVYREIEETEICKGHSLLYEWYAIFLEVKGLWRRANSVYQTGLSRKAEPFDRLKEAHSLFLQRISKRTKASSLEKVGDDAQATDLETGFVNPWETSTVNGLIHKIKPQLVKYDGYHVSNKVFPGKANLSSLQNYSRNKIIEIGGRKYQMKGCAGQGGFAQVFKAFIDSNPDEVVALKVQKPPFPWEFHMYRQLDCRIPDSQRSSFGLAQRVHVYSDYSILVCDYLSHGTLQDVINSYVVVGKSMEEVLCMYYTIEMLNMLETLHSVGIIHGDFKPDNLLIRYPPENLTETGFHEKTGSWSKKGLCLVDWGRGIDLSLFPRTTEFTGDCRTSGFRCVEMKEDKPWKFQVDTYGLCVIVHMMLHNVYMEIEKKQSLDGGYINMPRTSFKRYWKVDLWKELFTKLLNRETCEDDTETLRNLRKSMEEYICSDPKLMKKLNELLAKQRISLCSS
UniProt F4IWJ9: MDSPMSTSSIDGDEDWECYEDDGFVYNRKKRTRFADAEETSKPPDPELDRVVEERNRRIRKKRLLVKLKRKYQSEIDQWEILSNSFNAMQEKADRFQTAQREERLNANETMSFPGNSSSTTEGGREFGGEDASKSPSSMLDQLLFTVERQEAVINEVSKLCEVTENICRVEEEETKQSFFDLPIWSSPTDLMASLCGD
UniProt F4JT58: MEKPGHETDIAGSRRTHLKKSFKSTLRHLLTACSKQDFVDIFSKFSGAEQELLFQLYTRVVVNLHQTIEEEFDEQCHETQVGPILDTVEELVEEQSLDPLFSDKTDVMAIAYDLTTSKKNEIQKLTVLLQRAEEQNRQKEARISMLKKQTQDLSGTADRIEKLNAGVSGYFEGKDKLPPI

What was measured:
[1] = molecular target: T1, Centromere protein C (CENP-C, Arabidopsis), two-hybrid fusion (Arabidopsis thaliana) (UniProt Q66LG9); test: two-hybrid; GAL4 DNA-BD (pGBT9-GW) and AD (pGAD424-GW) fusions in yeast AH109; growth on -TLH (moderately selective) and -TLHA (severely selective) media, 30 °C, 3 days; BD constructs of CENP-C, SPC24.1, DSN1 and ZWINT1.1 self-activated
T1 sequence: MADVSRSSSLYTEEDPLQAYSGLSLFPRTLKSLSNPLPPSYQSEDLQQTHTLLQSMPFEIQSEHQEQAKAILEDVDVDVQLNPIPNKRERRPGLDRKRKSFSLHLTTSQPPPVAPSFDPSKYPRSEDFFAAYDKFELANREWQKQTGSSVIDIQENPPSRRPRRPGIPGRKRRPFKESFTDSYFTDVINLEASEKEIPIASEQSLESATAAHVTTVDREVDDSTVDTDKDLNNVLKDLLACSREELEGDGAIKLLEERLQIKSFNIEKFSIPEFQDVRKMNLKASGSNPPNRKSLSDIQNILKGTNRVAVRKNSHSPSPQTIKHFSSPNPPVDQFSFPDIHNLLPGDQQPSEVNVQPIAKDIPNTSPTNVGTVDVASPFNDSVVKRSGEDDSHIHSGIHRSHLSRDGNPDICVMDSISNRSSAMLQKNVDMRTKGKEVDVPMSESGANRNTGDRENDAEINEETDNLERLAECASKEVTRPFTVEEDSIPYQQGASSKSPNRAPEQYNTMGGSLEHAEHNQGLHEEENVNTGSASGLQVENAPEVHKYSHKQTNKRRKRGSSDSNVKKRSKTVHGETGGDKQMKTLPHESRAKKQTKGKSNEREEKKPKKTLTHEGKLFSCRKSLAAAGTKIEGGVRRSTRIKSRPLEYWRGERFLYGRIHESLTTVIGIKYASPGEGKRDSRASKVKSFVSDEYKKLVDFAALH

[2] = molecular target: NSL1.1 (Arabidopsis), two-hybrid fusion (Arabidopsis thaliana) (UniProt F4JHD1); test: as above
[3] = molecular target: T2, MIS12 (Arabidopsis), two-hybrid fusion (Arabidopsis thaliana) (UniProt Q2V0Z5); test: as above
T2 sequence: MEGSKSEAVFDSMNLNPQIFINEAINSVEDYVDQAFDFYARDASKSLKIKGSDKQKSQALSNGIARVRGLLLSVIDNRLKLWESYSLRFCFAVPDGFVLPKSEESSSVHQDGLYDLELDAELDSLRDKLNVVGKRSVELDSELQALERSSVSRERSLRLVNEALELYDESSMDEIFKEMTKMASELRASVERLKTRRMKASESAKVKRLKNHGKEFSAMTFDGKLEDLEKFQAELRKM

[4] = molecular target: T3, Yn:CENP-C (BiFC fusion) (Arabidopsis thaliana) (UniProt Q66LG9); test: split reporter; BiFC: fusions to the N-terminal and C-terminal fragments of YFP coinfiltrated with p19 into N. benthamiana leaves; confocal imaging 3 days after inoculation
T3 sequence: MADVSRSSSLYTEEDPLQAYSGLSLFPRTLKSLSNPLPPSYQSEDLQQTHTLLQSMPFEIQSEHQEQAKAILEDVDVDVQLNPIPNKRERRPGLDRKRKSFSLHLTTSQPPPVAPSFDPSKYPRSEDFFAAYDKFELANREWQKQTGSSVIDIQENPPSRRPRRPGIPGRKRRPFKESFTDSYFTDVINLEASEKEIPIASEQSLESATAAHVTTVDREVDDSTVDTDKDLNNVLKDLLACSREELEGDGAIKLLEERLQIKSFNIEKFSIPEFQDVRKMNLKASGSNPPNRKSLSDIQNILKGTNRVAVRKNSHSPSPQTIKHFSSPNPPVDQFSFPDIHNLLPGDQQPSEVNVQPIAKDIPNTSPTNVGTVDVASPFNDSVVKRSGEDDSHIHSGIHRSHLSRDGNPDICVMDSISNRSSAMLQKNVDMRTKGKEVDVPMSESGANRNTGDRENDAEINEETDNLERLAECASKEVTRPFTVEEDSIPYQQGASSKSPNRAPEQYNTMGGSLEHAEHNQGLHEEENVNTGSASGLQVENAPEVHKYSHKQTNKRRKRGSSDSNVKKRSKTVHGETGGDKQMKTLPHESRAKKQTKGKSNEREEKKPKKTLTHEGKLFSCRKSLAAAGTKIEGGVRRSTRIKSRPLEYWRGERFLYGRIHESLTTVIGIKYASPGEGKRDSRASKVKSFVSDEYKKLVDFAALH

[5] = molecular target: KNL1 (Arabidopsis), two-hybrid fusion (Arabidopsis thaliana); test: two-hybrid; GAL4 DNA-BD (pGBT9-GW) and AD (pGAD424-GW) fusions in yeast AH109; growth on -TLH (moderately selective) and -TLHA (severely selective) media, 30 °C, 3 days; BD constructs of CENP-C, SPC24.1, DSN1 and ZWINT1.1 self-activated
[6] = molecular target: KNL1 fragment: ESD containing region, two-hybrid fusion (Arabidopsis thaliana); test: as above
[7] = molecular target: KNL1 fragment: coiled-coil (CC) domain, two-hybrid fusion (Arabidopsis thaliana); test: as above
[8] = molecular target: KNL1 region spanning amino acids 350 to 450, two-hybrid fusion (Arabidopsis thaliana); test: as above
[9] = molecular target: KNL1 (BiFC fusion) (Arabidopsis thaliana); test: split reporter; BiFC: fusions to the N-terminal and C-terminal fragments of YFP coinfiltrated with p19 into N. benthamiana leaves; confocal imaging 3 days after inoculation

binding [1]: binds
Molecule: BMF1 (Arabidopsis), two-hybrid fusion (from UniProt F4IVI0)

binding [2]: binds
Molecule: DSN1 (Arabidopsis), two-hybrid fusion (from UniProt F4IWJ9)

binding [3]: binds
Molecule: NNF1 (Arabidopsis), two-hybrid fusion (from UniProt F4JT58)

binding [4]: no binding
Molecule: NNF1 fused to Yc (BiFC fusion) (Arabidopsis thaliana)

binding [5]: binds
binding [6]: binds
binding [7]: binds
B1: MIS12 (Arabidopsis), two-hybrid fusion (protein, UniProt Q2V0Z5 1-238)
chain: MEGSKSEAVFDSMNLNPQIFINEAINSVEDYVDQAFDFYARDASKSLKIKGSDKQKSQALSNGIARVRGLLLSVIDNRLKLWESYSLRFCFAVPDGFVLPKSEESSSVHQDGLYDLELDAELDSLRDKLNVVGKRSVELDSELQALERSSVSRERSLRLVNEALELYDESSMDEIFKEMTKMASELRASVERLKTRRMKASESAKVKRLKNHGKEFSAMTFDGKLEDLEKFQAELRKM

binding [5]: binds
binding [6]: binds
binding [7]: binds
B2: NUF2 (Arabidopsis), two-hybrid fusion (protein, UniProt Q8RXJ0 1-440)
chain: MSAYEYPRLSRSDIITALKDAQIASVTETDLKTPTSDFVSELYTRILIYLDALDEEEKGQVDFEALEQLENPDHHATSMQAMKLYCKVKDMLEMLDCPLPISFKDLLRPESSRTEFFISALLNYGLYKDSKMDLIRPKAEELGLLDEQRKQCEAKVAQLNAEIGEFDEAVERDLPFVQELEANIEQLNKKILELNNQQMSLRATFQKMREKSTQMDNEISKAEFDLVETVQENANLRSQIVQSPDKLQGALEEKKLVLGETKKAEQSAMVTFQEKAAILEVFEKALKKILKSSSQLQLINEQVTNAKTVEKEFKALKDKLSEDGVAYKSLEAKVVERERIVEQLNESLKQLEKEKAVMFDDWTKQLNELKVEVESRRRELETRQTNVESVVAMVDDNTAKTNQVRQSGEAKVKKLAAKYEEIVKQFHEYTVSFDAFLPSL

binding [5]: binds
binding [6]: binds
B3: MAD1 (Arabidopsis), two-hybrid fusion (protein, UniProt Q9LTY1 1-726)
chain: MILRTPQPKRLRSDAGESPFPTGATGSGNQLIIYEDSPLPAPAPLQTSHDHSADQHLCTYQCRQMVKADVLDALSTAEKQVEESKTKLQTLNANFTEADAERKHFRDKFLYSEQELAAAKAREKMLQEQLLMEINNSQERYTKELQSCHELEVKLQNEMNLRKKAESSAATAEEKAKLLEDKLTQLSGSVDREKKRLNNDIAQLGKEAKLSVARIGADLERMQCRAQNAETESNLLRSQLEHLKLIFDECLQEKTEVDKKLSSFTSEAASSSDNSVLVKHLQEELKRYEAEVREARKLKSRHLDAELLNVNLLEEQSRRERAESELSKFHDLQLSMEKLENELSSWKSLLNDIPGVSCPDDIVMRFSVLQNEVVQSTMKIGEASTRIKQLEETLEAIQLGRQNAVSEAALAKEKSEALKTDVKRIEVMLTLVTEEKEQLKAVVNELRKSNSEGSVSGAADGALIQGFESSLAKKENYIKDLEQDLNQLKDVNNRQRTEIELLNEKLVDEARRNKSLERDSDRLRSEISLLESKLGHGDYSAANTRVLRMVNTLGVENEAKQTIEALQAELQKTKERLQAVEELKSQSGDAGKLVDSHITGKIAQLKEQNATLEKREERYKTVFADRISVFRRACCELFGYKIVMDEHQRPNGIPVTRFTLQSIYAQSDDEKLEFEYESGNTSILNNEYASQGDIAKQIEIFIRKFNSIPAFTANLTMESFNRRTLY

binding [5]: binds
binding [8]: binds
B4: MPS1 (Arabidopsis), two-hybrid fusion (enzyme, UniProt Q84VX4 1-777)
chain: MDREDNLPVQPDKPPKSLVRPILNLETTSSSSSSSSSSPELLRHLQAAFKRHRPLSKMQTTSIGPRRSVAPQRQASRNTRLVTAEGQRSQDVVTLSQSLAANTLTQDTTNNLAITSVAGESASITQPTVSEHFNPSDRQMDFGKSAVTSLESNLDVQRKSQSLIGTSQDMEWDATNQAEASHLDACIGSKHQNLPSVDSEVSLKSEYKDSSSLAKIQGQLGEFPNFLNQPRTRCSAVGSSWATTTLIHSSSAPMLNATTHVSRSYVEADSNANPHAVQSQGNLPSCCPSSKVSNILHPNKDATASEMPASTNDPEVRVKETDTSKQQQITTGLEAPVGSSIYGSDGQANARLPEELHTSVSSQPQKSDKHEKVASSKGPSAPRKRNYDPDLFFKVNGKLYQRLGKIGSGGSSEVHKVISSDCTIYALKKIKLKGRDYATAYGFCQEIGYLKKLKGKTNIIQLIDYEVTDKTLLQEVLNGTMSNKDGRVKEDGFIYMVLEYGEIDLAHMLSQKWREIEGSDRTIDENWLRFYWQQILQAVNTIHEERIVHSDLKPANFLLVRGFLKLIDFGIAKAINSDTTNIQRDSQVGTLSYMSPEAFMCNESDENGNTIKCGRPSDIWSLGCILYQMVYGRTPFADYKTFWAKFKVITDPNHEITYNQLSNPWLIDLMKKCLAWDRNQRWRIPELLQHPFLAPPIPHEPQVKTIKLFSLIAESCGSDDDKANSMISQLEQLLSNPAPLPRNDVLDSRDQNQQLLSRVSELCIQLQDRLQGLEGEN

binding [9]: no binding
B5: MPS1 (BiFC fusion) (enzyme, UniProt Q84VX4 1-777)
chain: MDREDNLPVQPDKPPKSLVRPILNLETTSSSSSSSSSSPELLRHLQAAFKRHRPLSKMQTTSIGPRRSVAPQRQASRNTRLVTAEGQRSQDVVTLSQSLAANTLTQDTTNNLAITSVAGESASITQPTVSEHFNPSDRQMDFGKSAVTSLESNLDVQRKSQSLIGTSQDMEWDATNQAEASHLDACIGSKHQNLPSVDSEVSLKSEYKDSSSLAKIQGQLGEFPNFLNQPRTRCSAVGSSWATTTLIHSSSAPMLNATTHVSRSYVEADSNANPHAVQSQGNLPSCCPSSKVSNILHPNKDATASEMPASTNDPEVRVKETDTSKQQQITTGLEAPVGSSIYGSDGQANARLPEELHTSVSSQPQKSDKHEKVASSKGPSAPRKRNYDPDLFFKVNGKLYQRLGKIGSGGSSEVHKVISSDCTIYALKKIKLKGRDYATAYGFCQEIGYLKKLKGKTNIIQLIDYEVTDKTLLQEVLNGTMSNKDGRVKEDGFIYMVLEYGEIDLAHMLSQKWREIEGSDRTIDENWLRFYWQQILQAVNTIHEERIVHSDLKPANFLLVRGFLKLIDFGIAKAINSDTTNIQRDSQVGTLSYMSPEAFMCNESDENGNTIKCGRPSDIWSLGCILYQMVYGRTPFADYKTFWAKFKVITDPNHEITYNQLSNPWLIDLMKKCLAWDRNQRWRIPELLQHPFLAPPIPHEPQVKTIKLFSLIAESCGSDDDKANSMISQLEQLLSNPAPLPRNDVLDSRDQNQQLLSRVSELCIQLQDRLQGLEGEN
